B1: Q9NX63 (protein, UniProt Q9NX63 1-227, looked up)
chain: MGGTTSTRRVTFEADENENITVVKGIRLSENVIDRMKESSPSGSKSQRYSGAYGASVSDEELKRRVAEELALEQAKKESEDQKRLKQAKELDRERAAANEQLTRAILRERICSEEERAKAKHLARQLEEKDRVLKKQDAFYKEQLARLEERSSEFYRVTTEQYQKAAEEVEAKFKRYESHPVCADLQAKILQCYRENTHQTLKCSALATQYMHCVNHAKQSMLEKGG
modifications: full-length
B2: Q12906 (protein, UniProt Q12906 1-894, looked up)
chain: MRPMRIFVNDDRHVMAKHSSVYPTQEELEAVQNMVSHTERALKAVSDWIDEQEKGSSEQAESDNMDVPPEDDSKEGAGEQKTEHMTRTLRGVMRVGLVAKGLLLKGDLDLELVLLCKEKPTTALLDKVADNLAIQLAAVTEDKYEILQSVDDAAIVIKNTKEPPLSLTIHLTSPVVREEMEKVLAGETLSVNDPPDVLDRQKCLAALASLRHAKWFQARANGLKSCVIVIRVLRDLCTRVPTWGPLRGWPLELLCEKSIGTANRPMGAGEALRRVLECLASGIVMPDGSGIYDPCEKEATDAIGHLDRQQREDITQSAQHALRLAAFGQLHKVLGMDPLPSKMPKKPKNENPVDYTVQIPPSTTYAITPMKRPMEEDGEEKSPSKKKKKIQKKEEKAEPPQAMNALMRLNQLKPGLQYKLVSQTGPVHAPIFTMSVEVDGNSFEASGPSKKTAKLHVAVKVLQDMGLPTGAEGRDSSKGEDSAEETEAKPAVVAPAPVVEAVSTPSAAFPSDATAEQGPILTKHGKNPVMELNEKRRGLKYELISETGGSHDKRFVMEVEVDGQKFQGAGSNKKVAKAYAALAALEKLFPDTPLALDANKKKRAPVPVRGGPKFAAKPHNPGFGMGGPMHNEVPPPPNLRGRGRGGSIRGRGRGRGFGGANHGGYMNAGAGYGSYGYGGNSATAGYSQFYSNGGHSGNASGGGGGGGGGSSGYGSYYQGDNYNSPVPPKHAGKKQPHGGQQKPSYGSGYQSHQGQQQSYNQSPYSNYGPPQGKQKGYNHGQGSYSYSNSYNSPGGGGGSDYNYESKFNYSGSGGRSGGNSYGSGGASYNPGSHGGYGGGSGGGSSYQGKQGGYSQSNYNSPGSGQNYSGPPSSYQSSQGGYGRNADHSMNYQYR
modifications: full-length
B3: P11166 (protein, UniProt P11166 1-492, looked up)
chain: MEPSSKKLTGRLMLAVGGAVLGSLQFGYNTGVINAPQKVIEEFYNQTWVHRYGESILPTTLTTLWSLSVAIFSVGGMIGSFSVGLFVNRFGRRNSMLMMNLLAFVSAVLMGFSKLGKSFEMLILGRFIIGVYCGLTTGFVPMYVGEVSPTALRGALGTLHQLGIVVGILIAQVFGLDSIMGNKDLWPLLLSIIFIPALLQCIVLPFCPESPRFLLINRNEENRAKSVLKKLRGTADVTHDLQEMKEESRQMMREKKVTILELFRSPAYRQPILIAVVLQLSQQLSGINAVFYYSTSIFEKAGVQQPVYATIGSGIVNTAFTVVSLFVVERAGRRTLHLIGLAGMAGCAILMTIALALLEQLPWMSYLSIVAIFGFVAFFEVGPGPIPWFIVAELFSQGPRPAAIAVAGFSNWTSNFIVGMCFQYVEQLCGPYVFIIFTVLLVLFFIFTYFKVPETKGRTFDEIASGFRQGGASQSDKTPEELFHPLGADSQV
modifications: full-length
B4: Q99584 (protein, UniProt Q99584 1-98, looked up)
chain: MAAEPLTELEESIETVVTTFFTFARQEGRKDSLSVNEFKELVTQQLPHLLKDVGSLDEKMKSLDVNQDSELKFNEYWRLIGELAKEIRKKKDLKIRKK
modifications: full-length
B5: P14927 (protein, UniProt P14927 1-111, looked up)
chain: MAGKQAVSASGKWLDGIRKWYYNAAGFNKLGLMRDDTIYEDEDVKEAIRRLPENLYNDRMFRIKRALDLNLKHQILPKEQWTKYEEENFYLEPYLKEVIRERKEREEWAKK
modifications: full-length
B6: Q02218 (protein, UniProt Q02218 1-1023, looked up)
chain: MFHLRTCAAKLRPLTASQTVKTFSQNRPAAARTFQQIRCYSAPVAAEPFLSGTSSNYVEEMYCAWLENPKSVHKSWDIFFRNTNAGAPPGTAYQSPLPLSRGSLAAVAHAQSLVEAQPNVDKLVEDHLAVQSLIRAYQIRGHHVAQLDPLGILDADLDSSVPADIISSTDKLGFYGLDESDLDKVFHLPTTTFIGGQESALPLREIIRRLEMAYCQHIGVEFMFINDLEQCQWIRQKFETPGIMQFTNEEKRTLLARLVRSTRFEEFLQRKWSSEKRFGLEGCEVLIPALKTIIDKSSENGVDYVIMGMPHRGRLNVLANVIRKELEQIFCQFDSKLEAADEGSGDVKYHLGMYHRRINRVTDRNITLSLVANPSHLEAADPVVMGKTKAEQFYCGDTEGKKVMSILLHGDAAFAGQGIVYETFHLSDLPSYTTHGTVHVVVNNQIGFTTDPRMARSSPYPTDVARVVNAPIFHVNSDDPEAVMYVCKVAAEWRSTFHKDVVVDLVCYRRNGHNEMDEPMFTQPLMYKQIRKQKPVLQKYAELLVSQGVVNQPEYEEEISKYDKICEEAFARSKDEKILHIKHWLDSPWPGFFTLDGQPRSMSCPSTGLTEDILTHIGNVASSVPVENFTIHGGLSRILKTRGEMVKNRTVDWALAEYMAFGSLLKEGIHIRLSGQDVERGTFSHRHHVLHDQNVDKRTCIPMNHLWPNQAPYTVCNSSLSEYGVLGFELGFAMASPNALVLWEAQFGDFHNTAQCIIDQFICPGQAKWVRQNGIVLLLPHGMEGMGPEHSSARPERFLQMCNDDPDVLPDLKEANFDINQLYDCNWVVVNCSTPGNFFHVLRRQILLPFRKPLIIFTPKSLLRHPEARSSFDEMLPGTHFQRVIPEDGPAAQNPENVKRLLFCTGKVYYDLTRERKARDMVGQVAITRIEQLSPFPFDLLLKEVQKYPNAELAWCQEEHKNQGYYDYVKPRLRTTISRAKPVWYAGRDPAAAPATGNKKTHLTELQRLLDTAFDLDVFKNFS
modifications: full-length
B7: P61026 (protein, UniProt P61026 1-200, looked up)
chain: MAKKTYDLLFKLLLIGDSGVGKTCVLFRFSDDAFNTTFISTIGIDFKIKTVELQGKKIKLQIWDTAGQERFHTITTSYYRGAMGIMLVYDITNGKSFENISKWLRNIDEHANEDVERMLLGNKCDMDDKRVVPKGKGEQIAREHGIRFFETSAKANINIEKAFLTLAEDILRKTPVKEPNSENVDISSGGGVTGWKSKCC
modifications: full-length
B8: P22626 (protein, UniProt P22626 1-353, looked up)
chain: MEKTLETVPLERKKREKEQFRKLFIGGLSFETTEESLRNYYEQWGKLTDCVVMRDPASKRSRGFGFVTFSSMAEVDAAMAARPHSIDGRVVEPKRAVAREESGKPGAHVTVKKLFVGGIKEDTEEHHLRDYFEEYGKIDTIEIITDRQSGKKRGFGFVTFDDHDPVDKIVLQKYHTINGHNAEVRKALSRQEMQEVQSSRSGRGGNFGFGDSRGGGGNFGPGPGSNFRGGSDGYGSGRGFGDGYNGYGGGPGGGNFGGSPGYGGGRGGYGGGGPGYGNQGGGYGGGYDNYGGGNYGSGNYNDFGNYNQQPSNYGPMKSGNFGGSRNMGGPYGGGNYGPGGSGGSGGYGGRSRY
modifications: full-length
B9: Q9UBG0 (protein, UniProt Q9UBG0 1-1479, looked up)
chain: MGPGRPAPAPWPRHLLRCVLLLGCLHLGRPGAPGDAALPEPNVFLIFSHGLQGCLEAQGGQVRVTPACNTSLPAQRWKWVSRNRLFNLGTMQCLGTGWPGTNTTASLGMYECDREALNLRWHCRTLGDQLSLLLGARTSNISKPGTLERGDQTRSGQWRIYGSEEDLCALPYHEVYTIQGNSHGKPCTIPFKYDNQWFHGCTSTGREDGHLWCATTQDYGKDERWGFCPIKSNDCETFWDKDQLTDSCYQFNFQSTLSWREAWASCEQQGADLLSITEIHEQTYINGLLTGYSSTLWIGLNDLDTSGGWQWSDNSPLKYLNWESDQPDNPSEENCGVIRTESSGGWQNRDCSIALPYVCKKKPNATAEPTPPDRWANVKVECEPSWQPFQGHCYRLQAEKRSWQESKKACLRGGGDLVSIHSMAELEFITKQIKQEVEELWIGLNDLKLQMNFEWSDGSLVSFTHWHPFEPNNFRDSLEDCVTIWGPEGRWNDSPCNQSLPSICKKAGQLSQGAAEEDHGCRKGWTWHSPSCYWLGEDQVTYSEARRLCTDHGSQLVTITNRFEQAFVSSLIYNWEGEYFWTALQDLNSTGSFFWLSGDEVMYTHWNRDQPGYSRGGCVALATGSAMGLWEVKNCTSFRARYICRQSLGTPVTPELPGPDPTPSLTGSCPQGWASDTKLRYCYKVFSSERLQDKKSWVQAQGACQELGAQLLSLASYEEEHFVANMLNKIFGESEPEIHEQHWFWIGLNRRDPRGGQSWRWSDGVGFSYHNFDRSRHDDDDIRGCAVLDLASLQWVAMQCDTQLDWICKIPRGTDVREPDDSPQGRREWLRFQEAEYKFFEHHSTWAQAQRICTWFQAELTSVHSQAELDFLSHNLQKFSRAQEQHWWIGLHTSESDGRFRWTDGSIINFISWAPGKPRPVGKDKKCVYMTASREDWGDQRCLTALPYICKRSNVTKETQPPDLPTTALGGCPSDWIQFLNKCFQVQGQEPQSRVKWSEAQFSCEQQEAQLVTITNPLEQAFITASLPNVTFDLWIGLHASQRDFQWVEQEPLMYANWAPGEPSGPSPAPSGNKPTSCAVVLHSPSAHFTGRWDDRSCTEETHGFICQKGTDPSLSPSPAALPPAPGTELSYLNGTFRLLQKPLRWHDALLLCESRNASLAYVPDPYTQAFLTQAARGLRTPLWIGLAGEEGSRRYSWVSEEPLNYVGWQDGEPQQPGGCTYVDVDGAWRTTSCDTKLQGAVCGVSSGPPPPRRISYHGSCPQGLADSAWIPFREHCYSFHMELLLGHKEARQRCQRAGGAVLSILDEMENVFVWEHLQSYEGQSRGAWLGMNFNPKGGTLVWQDNTAVNYSNWGPPGLGPSMLSHNSCYWIQSNSGLWRPGACTNITMGVVCKLPRAEQSSFSPSALPENPAALVVVLMAVLLLLALLTAALILYRRRQSIERGAFEGARYSRSSSSPTEATEKNILVSDMEMNEQQE
modifications: full-length
B10: P07099 (protein, UniProt P07099 1-455, looked up)
chain: MWLEILLTSVLGFAIYWFISRDKEETLPLEDGWWGPGTRSAAREDDSIRPFKVETSDEEIHDLHQRIDKFRFTPPLEDSCFHYGFNSNYLKKVISYWRNEFDWKKQVEILNRYPHFKTKIEGLDIHFIHVKPPQLPAGHTPKPLLMVHGWPGSFYEFYKIIPLLTDPKNHGLSDEHVFEVICPSIPGYGFSEASSKKGFNSVATARIFYKLMLRLGFQEFYIQGGDWGSLICTNMAQLVPSHVKGLHLNMALVLSNFSTLTLLLGQRFGRFLGLTERDVELLYPVKEKVFYSLMRESGYMHIQCTKPDTVGSALNDSPVGLAAYILEKFSTWTNTEFRYLEDGGLERKFSLDDLLTNVMLYWTTGTIISSQRFYKENLGQGWMTQKHERMKVYVPTGFSAFPFELLHTPEKWVRFKYPKLISYSYMVRGGHFAAFEEPELLAQDIRKFLSVLERQ
modifications: full-length

Test: Proteomics analysis (trypsin digest, LC-MS/MS) of hMSC ghosts and derived CDLs, conditioned or unconditioned by PC3 medium
Set-up: species or system human
Conditions: CDLs derived from conditioned hMSCs versus conditioned ghosts; LC-MS/MS peak area per protein

Molecule	Ratio of expression Cond. CDLs/Cond. Ghosts
B1	10%
B2	10%
B3	9%
B4	9%
B5	8%
B6	8%
B7	7%
B8	7%
B9	7%
B10	7%

Same assay, conditions: hMSC ghosts conditioned by PC3 medium versus unconditioned ghosts; LC-MS/MS peak area per protein

Molecule	Ratio of expression Cond Ghosts/Ghosts
B1	100%
B2	100%
B3	100%
B4	100%
B5	100%
B6	100%
B7	100%
B8	100%
B9	100%
B10	100%
